Experimental data reported in PubChem BioAssay AID504834 (National Center for Advancing Translational Sciences (NCATS), 2011).
Out of some 320,000 compounds screened, about 22,000 (6.9%) were called active. The inconclusive results got no clear call from the source; some entries with a clear call stand among them for comparison. Calls follow the shape of the dose curve; as a rule, active = well fitted inhibition curve with a large enough effect; inconclusive = small, poorly fitted or top-dose-only effect, or another doubt; inactive = no such curve, though single readings can be large or run the other way. Where the call is inconclusive, the potency comes from a doubtful curve fit.

Assay: Primary qHTS for delayed death inhibitors of the malarial parasite plastid, 96 hour incubation
Details: P. falciparum luciferase reporter growth; series mostly up to 28.7 µM
Outline: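 P. falciparum expressing integrated firefly luciferase, in erythrocytes at 2% hematocrit, 0.05% parasitemia, incubated with compounds 96 h at 37 C, 5% CO2. Growth inhibition read as loss of luminescence; two-generation exposure targets delayed-death apicoplast inhibitors.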
Potency is read from the fitted curve at half-maximal effect.

Structure (SMILES)	Potency
O=C(NCCn1cc(SCc2ccccc2)c2ccccc21)c1c(F)cccc1F	inconclusive: 18.5 µM [inhibitor, single point]
O=C(Cc1coc2ccc3ccccc3c12)Nc1nccs1	inconclusive: 9.28 µM [inhibitor, partial curve, poor fit]
CN1C=CC(=C2C(=O)c3ccccc3C2=O)C=C1	inconclusive: 18.5 µM [inhibitor, single point]
COc1ccc(CCNc2oc(COc3ccccc3)nc2C#N)cc1	inconclusive: 0.37 µM [inhibitor, partial curve, poor fit]
C=Cn1cc[n+](CC(=O)c2ccc(Br)s2)c1	active: 3.29 µM
CCc1nc(SCC(=O)N2CCCC2)c2c(=O)n(C)c(=O)n(C)c2n1	inactive
CCC(=O)NC(c1ccccc1)c1nc2ccccc2[nH]1 (stereo not given)	inactive
Cc1ccc(-c2cc(C(F)(F)F)n3ncc(C(=O)NCc4ccco4)c3n2)cc1	inconclusive: 1.04 µM [inhibitor, full curve, poor fit]
CCCc1cc(C(=O)N2CCCC(C(=O)c3ccc(Cl)cc3)C2)n(C)n1 (stereo not given)	inconclusive: 18.5 µM [inhibitor, single point]
CS(=O)(=O)N(CC(=O)Nc1ccc(S(=O)(=O)N2CCOCC2)cc1)c1ccccc1Cl	inactive
O=C(Oc1ccc(Cl)cc1)N1CCOCC1	inconclusive: 0.522 µM [inhibitor, full curve, poor fit]
Cc1cc2cc(CN3C(=O)c4ccccc4C3=O)ccc2n1C	inconclusive: 14.7 µM [inhibitor, single point]
Cc1cc(C(=O)N2CCCC(N3CCN(c4cccc(C(F)(F)F)c4)CC3)C2)nn1C (stereo not given)	inactive
Cc1ccccc1-n1c(C)nnc1SCc1nc2ccccc2s1	inconclusive: 7.38 µM [inhibitor, partial curve]
COC(=O)c1ccc(CSc2ccc3nnc(-c4ccccc4)n3n2)o1	inconclusive: 13.1 µM [inhibitor, partial curve, poor fit]
Cc1c(CN(C)C)c2c(n1Cc1ccccc1)C(=O)c1ccc(Br)cc1-2	active: 2.33 µM
COC(=O)c1cn(NC(=O)Cc2c(F)cccc2Cl)c(=O)c2ccccc12	inactive
CC(=O)Nc1ccc(S(=O)(=O)N2CCN(c3ccc(C)c(Cl)c3)CC2)cc1	inactive
Cc1ccc(C(=O)NC2CCCCC2)cc1	inactive
CC(C)N1CCc2c(sc(NC(=O)CCS(=O)(=O)c3ccccc3)c2C#N)C1	inconclusive: 6.57 µM [inhibitor, partial curve]
CCOc1ccc(-c2noc(CCC(=O)NC3CCCC3)n2)cc1OC	inconclusive: 5.86 µM [inhibitor, partial curve, poor fit]
CCOC(=O)c1cnc2ccc(OCC)cc2c1NCc1cccnc1	active: 6.57 µM
CC(=O)N1CCc2cc(S(=O)(=O)CCC(=O)NCc3ccco3)ccc21	inconclusive: 4.15 µM [inhibitor, partial curve, poor fit]

Structure (SMILES)	Potency
O=C(CC(c1ccccc1)c1ccccc1O)NCc1ccccc1 (stereo not given)	inconclusive: 0.828 µM [inhibitor, full curve, poor fit]
O=C(Cn1cc2c(n1)CCCCC2)NCc1ccccn1	inconclusive: 18.5 µM [inhibitor, single point]
CC1(c2ccccc2)NC(=O)N(CC(=O)Nc2ccccc2N2CCCCC2)C1=O (stereo not given)	inconclusive: 9.28 µM [inhibitor, single point]
C=C(C)C1Cc2cc3ccc(=O)oc3cc2O1 (stereo not given)	inconclusive: 18.5 µM [inhibitor, single point]
Cc1ccc(-n2c(N)c(C(=O)N3CCN(C)CC3)sc2=S)cc1	inconclusive: 9.28 µM [inhibitor, single point]
CC1CCN(C(=O)C(=O)Nc2sc3c(c2C(N)=O)CC(C)(C)OC3)CC1	inactive
CCc1ccc(C(=O)NNC(=O)c2cccc(N3C(=O)CCC3=O)c2)cc1	inactive
COc1ccc(Cn2ccc(=O)c(Cc3c(Cl)cccc3Cl)c2C)cc1	inconclusive: 20.8 µM [inhibitor, single point]
CCC1=NN2C(=N)/C(=C\c3cccn3-c3ccc(Cl)cc3)C(=O)N=C2S1	inconclusive: 13.1 µM [inhibitor, single point]
COc1cccc(NC(=O)CNS(=O)(=O)c2ccc(Cl)cc2)c1	inactive
Cn1nc(C(=O)NC2CCCN(Cc3ccccc3F)C2)c2ccccc2c1=O (stereo not given)	inconclusive: 10.4 µM [inhibitor, single point]
Cc1c(Cc2ccccc2)c(=O)oc2cc(OCC(=O)NCC3CCC(C(=O)O)CC3)ccc12 (stereo not given)	active: 11.7 µM
COc1cc2c(cc1OC)CN(S(=O)(=O)/C=C/c1ccccc1)CC2	inactive
CC(O)CN=c1cc(-c2ccccc2)oc2ccc(Cl)cc12 (stereo not given)	inconclusive: 10.4 µM [inhibitor, single point]
CCOc1c(CNCCCSc2nc(C)cc(C)n2)cccc1OC	inconclusive: 11.7 µM [inhibitor, single point]
Cc1ccc(S(=O)(=O)N2[C@@H](c3ccccc3F)C(C(=O)O)=CC[C@H]2c2ccc(C(C)C)cc2)cc1	inconclusive: 13.1 µM [inhibitor, single point]
CC1CCC2(CC1)NC(=O)N(CC(=O)NCc1ccc3c(c1)OCO3)C2=O (stereo not given)	inactive
Cn1nnc2cc(C(=O)N3CCCCCC3)ccc21	inactive
CCN(CC)CCNCC(=O)Nc1ccc(Cl)cc1C(=O)c1ccccc1	inconclusive: 14.7 µM [inhibitor, single point]
Cc1oc(-c2cccs2)nc1CN1CCN(C2CCCC2)C(CCO)C1 (stereo not given)	inconclusive: 10.4 µM [inhibitor, single point]
O=C(Nc1ccc(Br)cc1)c1ccc(N2C(=O)C3CCCCC3C2=O)cc1 (stereo not given)	inconclusive: 2.94 µM [inhibitor, full curve]
CCc1noc(C)c1C(=O)N1CCN(S(=O)(=O)c2ccc(C)cc2C)CC1	inconclusive: 18.5 µM [inhibitor, partial curve, poor fit]

Taken from above:
Potency with C=C(C)C1Cc2cc3ccc(=O)oc3cc2O1 (stereo not given) is entered as inconclusive: 18.5 µM [inhibitor, single point]
Potency with COc1cccc(NC(=O)CNS(=O)(=O)c2ccc(Cl)cc2)c1 is entered as inactive
